Results deposited as PubChem BioAssay AID743121 (NCATS, 2013)
In all, the deposit lists about 26,000 reagents; shown is a random part of them. Of all reagents, 167 (0.63%) got an active call. 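Calls are per gene from RSA p-values that are not deposited; an individual active-marked siRNA can sensitise only weakly.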 The numbers tell different reagents against one gene apart. Further read-outs or replicates are left out here.

Purpose: 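Knock-downs that sensitise breast cancer cells to camptothecin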 (primary screen)
System: MDA-MB-231 cells, a human breast cancer line
Reagent: single siRNA against human genes, 20 nM siRNA (0.8 pmol per well)
Time to read-out: 120 h (drug added 48 h after transfection, read 72 h later)
Challenge: camptothecin 20 nM (about EC30) for 72 h; vehicle 0.1% DMSO in parallel plates
Measured: 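Cell viability by ATP luminescence (CellTiter-Glo) as % of non-targeting siRNA wells, and the log2 ratio of viability without drug over viability with camptothecin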
Direction: log2 vehicle/camptothecin viability: higher = stronger sensitisation to camptothecin
Rule for the call: 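Each gene scored by redundant siRNA activity (RSA) over its individual siRNA ratios; a gene is called active at p < 0.001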

Which result is listed for CIDEB #1?
log2 vehicle/camptothecin viability: -0.0665; Outcome: inactive

For CIDEB #2, what was measured?
log2 vehicle/camptothecin viability: -0.193; Outcome: inactive

How did the screen score CIDEB #3?
log2 vehicle/camptothecin viability: -1.22; Outcome: inactive

What is on record for CIDEB #4?
log2 vehicle/camptothecin viability: 0.214; Outcome: inactive

How did the screen score ESR1 #1?
log2 vehicle/camptothecin viability: -0.145; Outcome: inactive

With ESR1 #2, what does the deposit list?
log2 vehicle/camptothecin viability: -0.563; Outcome: inactive

For ESR1 #3, how do the results read?
log2 vehicle/camptothecin viability: -0.00647; Outcome: inactive

For ESR1 #4, what was measured?
log2 vehicle/camptothecin viability: -0.282; Outcome: inactive

Part of the list above, set out differently.
gene,reagent no.,log2 vehicle/camptothecin viability,Outcome
CIDEB,4,0.214,inactive
ESR1,1,-0.145,inactive

Next reagents:
Which result is listed for ANGPTL6 #1?
log2 vehicle/camptothecin viability: 0.19; Outcome: inactive

How did the screen score ANGPTL6 #2?
log2 vehicle/camptothecin viability: -0.0813; Outcome: inactive

What is on record for ANGPTL6 #3?
log2 vehicle/camptothecin viability: -0.119; Outcome: inactive

What did the screen give for ANGPTL6 #4?
log2 vehicle/camptothecin viability: 0.018; Outcome: inactive

For PTEN #1, what was measured?
log2 vehicle/camptothecin viability: 0.0866; Outcome: inactive

How did the screen score PTEN #2?
log2 vehicle/camptothecin viability: 0.293; Outcome: inactive

With PTEN #3, what was measured?
log2 vehicle/camptothecin viability: -0.256; Outcome: inactive

For PTEN #4, what does the deposit list?
log2 vehicle/camptothecin viability: -0.209; Outcome: inactive
